Patent US20030200567A1
Results are given in words; binding and its absence hold for the method and conditions named. Some entries that bind do so weakly or less than the wild type.

Chains of the proteins cited; added tags and fusions are not shown. Residues count along the entry.
UniProt Q9SLY8, residues 30-424: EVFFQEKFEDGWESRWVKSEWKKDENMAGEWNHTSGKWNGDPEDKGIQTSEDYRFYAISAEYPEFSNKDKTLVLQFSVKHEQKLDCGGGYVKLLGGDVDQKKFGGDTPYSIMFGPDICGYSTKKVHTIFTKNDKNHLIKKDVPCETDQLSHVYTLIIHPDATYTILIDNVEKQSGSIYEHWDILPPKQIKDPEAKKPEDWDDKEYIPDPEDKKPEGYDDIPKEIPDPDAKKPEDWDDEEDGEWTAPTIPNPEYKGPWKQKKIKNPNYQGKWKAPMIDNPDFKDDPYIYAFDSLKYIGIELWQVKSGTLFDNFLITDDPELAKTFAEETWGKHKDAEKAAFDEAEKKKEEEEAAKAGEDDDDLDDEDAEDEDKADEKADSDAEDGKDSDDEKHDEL

Biological target: calreticulin (CRT) (rice) (UniProt Q9SLY8)
Assay: yeast two-hybrid, CRT bait against rice cultured-cell cDNA library

binding: binds
B1: CRT-interacting polypeptide (CRTintP) (protein)
chain: MSEDASVGASSSTVKAGDDPEATIEINIKTLDSQVHKLRVKKNVPVLVLKEKIVEATGVPVDQQRLIFRGRVLKDDHLLSEYHLEDGYTLHLVARRAAAEGQHSSGTSDENTHANVNVAGNGLLGDISRSVRDILGSLGLATPGGMTNTTFSVPLTTAPKGANNVNGRTQPGNHAQPGFSILNHQIQVSQLQPAGSIPRNMVIPDSLTTLLEYINRMDQVLQNNGTPSVDTNTQQPPRSDDAYLNQRFPSPEVLVSVIERAQQLLGGSAASALSHLAQPIQRDSGTSDASIRSQIQNESAQLGVAMQHLGAMFLELGRTMMMLRMGPSPADAFVNAGSSVYINSAGPNPIMVQPSFQNTPPFGVSSIPVLGGISGAFGIVDPSRTSAVNTHGTSTTSGSSAGMTTASAGAVNEGRQNVERTQGGNPSATSMHGLPARTVIAAIPARSTAEAPNHVLSVILPVQVRSQVAMPNQSTVSQGSQTAVGGGSQPQASVGGVASIPSIVAQVTAQVANALSANQQGQVSSSAQNTVDQGSRSVTTNGVDNVDSLVSASTQLQNELSDSNNGRTSLNAQSLVAGAGISPSNTSDPNLASEDSSTENAPNIGSIQQHPEMEGIHADNVRKPSEESTTANLVGQITTTCTDDISVNRSAENSSQKNIPLDGVSAQSIKPSASSRSEPVGLGGGLQPKRRSRTAKPPGSSSDTGEVVNSSRISNSQNAVSMGQQVLQALASQNTNVNRSHVTDSPLPSTTSQFSGGMPPRRQGGEGQVDFGSMISSVLNNPAFGNLLSNVAEQTGMGSAGDLRNMVEECAQSPAIMDTMSNLVQNVDGSGRGQGGIDLSRMMQQMMPVVSQVLGGAGARPAGTNSGQSRLQPRRSDMRVDDASDYGNSQIDLHQAREHIEQHDSPRDIFGAVLETAAQAYGEDESIEDMLEELVSDPELTDDYLKLLLQQVRQRIQSASQSGNQS
